Assay results published in paper doi:10.1101/606285.
These are yes or no findings as the source states them, for the method shown. In cells and extracts the contact can be indirect. Here binding means that the protein was enriched with, or labelled near, the bait; the list need not be complete. Sequences can lack the tags named with a protein.

Amino acid sequences for entries named in this document (tags omitted).
UniProt Q5IBC5: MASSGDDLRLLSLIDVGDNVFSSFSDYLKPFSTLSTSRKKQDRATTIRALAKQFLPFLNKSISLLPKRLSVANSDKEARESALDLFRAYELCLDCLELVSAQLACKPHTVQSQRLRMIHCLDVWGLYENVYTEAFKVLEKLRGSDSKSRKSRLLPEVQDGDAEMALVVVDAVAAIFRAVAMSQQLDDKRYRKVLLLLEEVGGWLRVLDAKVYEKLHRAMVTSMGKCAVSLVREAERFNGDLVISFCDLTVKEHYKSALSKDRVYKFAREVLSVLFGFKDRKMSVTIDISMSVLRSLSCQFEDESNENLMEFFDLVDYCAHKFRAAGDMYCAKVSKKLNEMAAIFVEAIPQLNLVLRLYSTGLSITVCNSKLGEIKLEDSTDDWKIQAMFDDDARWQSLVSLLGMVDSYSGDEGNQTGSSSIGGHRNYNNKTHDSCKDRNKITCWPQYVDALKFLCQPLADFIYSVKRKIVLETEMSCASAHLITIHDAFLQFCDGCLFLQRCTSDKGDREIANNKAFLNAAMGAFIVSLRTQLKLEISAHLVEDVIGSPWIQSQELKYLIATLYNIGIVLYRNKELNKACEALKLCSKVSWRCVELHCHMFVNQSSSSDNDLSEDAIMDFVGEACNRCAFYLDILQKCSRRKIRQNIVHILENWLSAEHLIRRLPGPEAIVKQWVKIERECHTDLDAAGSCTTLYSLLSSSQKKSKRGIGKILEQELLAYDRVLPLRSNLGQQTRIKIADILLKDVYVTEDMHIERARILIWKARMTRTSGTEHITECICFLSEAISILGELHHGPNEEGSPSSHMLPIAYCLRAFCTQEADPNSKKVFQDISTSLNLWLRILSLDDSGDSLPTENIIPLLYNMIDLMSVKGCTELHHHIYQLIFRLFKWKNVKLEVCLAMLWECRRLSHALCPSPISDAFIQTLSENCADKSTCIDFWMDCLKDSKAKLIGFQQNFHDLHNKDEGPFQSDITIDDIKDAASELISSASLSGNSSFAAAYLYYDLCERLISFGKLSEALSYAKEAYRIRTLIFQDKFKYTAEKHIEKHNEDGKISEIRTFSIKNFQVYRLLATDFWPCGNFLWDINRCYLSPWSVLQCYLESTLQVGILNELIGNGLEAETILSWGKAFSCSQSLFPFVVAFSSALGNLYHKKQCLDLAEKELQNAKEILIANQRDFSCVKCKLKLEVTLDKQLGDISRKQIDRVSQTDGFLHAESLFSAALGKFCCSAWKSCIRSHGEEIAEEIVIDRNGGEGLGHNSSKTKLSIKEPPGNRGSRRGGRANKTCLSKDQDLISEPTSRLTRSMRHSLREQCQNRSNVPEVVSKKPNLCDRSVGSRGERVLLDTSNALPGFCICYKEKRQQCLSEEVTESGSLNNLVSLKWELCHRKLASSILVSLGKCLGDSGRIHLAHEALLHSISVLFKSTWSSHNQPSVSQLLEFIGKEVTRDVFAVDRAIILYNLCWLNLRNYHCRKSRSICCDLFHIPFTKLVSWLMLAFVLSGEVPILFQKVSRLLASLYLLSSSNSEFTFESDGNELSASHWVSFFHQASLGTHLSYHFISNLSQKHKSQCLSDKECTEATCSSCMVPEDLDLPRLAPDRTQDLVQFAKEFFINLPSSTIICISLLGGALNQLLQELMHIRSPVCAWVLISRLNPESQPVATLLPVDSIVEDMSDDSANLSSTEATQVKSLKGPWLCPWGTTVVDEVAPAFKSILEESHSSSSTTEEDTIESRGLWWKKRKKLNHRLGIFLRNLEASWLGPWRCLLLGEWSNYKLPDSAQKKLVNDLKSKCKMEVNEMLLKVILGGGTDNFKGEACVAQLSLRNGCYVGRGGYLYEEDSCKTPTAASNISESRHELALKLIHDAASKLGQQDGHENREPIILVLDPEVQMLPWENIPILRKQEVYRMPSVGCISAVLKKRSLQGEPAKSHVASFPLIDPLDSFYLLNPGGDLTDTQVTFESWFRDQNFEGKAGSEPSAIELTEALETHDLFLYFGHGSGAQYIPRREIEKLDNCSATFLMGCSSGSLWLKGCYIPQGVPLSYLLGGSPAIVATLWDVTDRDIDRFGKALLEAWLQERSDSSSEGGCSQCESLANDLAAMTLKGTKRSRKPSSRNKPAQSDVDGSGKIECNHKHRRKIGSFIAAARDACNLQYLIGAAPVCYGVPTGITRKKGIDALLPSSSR

Biological target: T1, GS^rhino-tagged PATRONUS1 (PANS1) (Arabidopsis thaliana) (UniProt Q9LJG6)
T1 sequence: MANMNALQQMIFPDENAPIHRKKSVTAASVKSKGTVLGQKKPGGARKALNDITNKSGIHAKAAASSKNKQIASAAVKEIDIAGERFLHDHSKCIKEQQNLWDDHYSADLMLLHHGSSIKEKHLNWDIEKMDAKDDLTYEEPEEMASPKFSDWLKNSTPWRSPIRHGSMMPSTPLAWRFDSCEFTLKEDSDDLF
Test: affinity purification with mass spectrometry

- binding: binds
Sequence: SEPARASE (ESP1) (from UniProt Q5IBC5 1-2180) (enzyme)
